# Screening data, single-dose tests

Values are the deposited “Percent Effect”, in %. The controls that fix the scale are not given in the record; negative values are as filed. This is an unselected part of the compounds tested. Two or more numbers in one place are separate tests of the same structure; such repeats can differ widely.

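Growth of Mycobacterium tuberculosis over 3 days (7H9 medium with glucose and tyloxapol); the read-out is not stated. Tested at 50 µM. Direction is inferred from retests: higher values go with more growth inhibition. Size under these conditions: about 69,000 compounds, about 760 of them at 50% or above in at least one test.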

Compound,effect
O=C(NCCCNc1ccc(C(F)(F)F)cn1)c1ccc2c(c1)OCO2,18.4
c1csc(CCNC2CCc3ncnn3C2)c1 (stereo unspecified),29.55 & 1.797
Cc1occc1C(=O)N1CCc2ncnc(-c3cnn(C)c3)c2CC1,17.7
CN1CCN([C@@H]2CCN(Cc3ccc4cc(F)ccc4n3)C[C@H]2O)CC1,-12.89
O=C(Nc1ncnc2c1CCC2)c1ccc2c(c1)OCO2,-6.926 & -28.81
CC(C)N1CCc2nnc(COc3cncnc3)n2CC1.O=C(O)C(F)(F)F,-17.78
Cc1ccc2[nH]c(CN(C)c3cc(CN)nc(C)n3)nc2c1,3.512
CSCC(=O)NS(=O)(=O)c1ccc2c(c1)OCCO2,13.32
CCC(CO)N(Cc1ccco1)C(=O)c1sccc1NC(C)=O (stereo unspecified),12.9
CS(=O)(=O)N1CCc2c(nnn2CC2CC2)C1COCC1CC1 (stereo unspecified),-4.847 & 12.43
Cc1cc(C(=O)N2CCC(n3nc(C)cc3C)C2)c2ccc(F)cc2n1 (stereo unspecified),10.29
CCc1cnc(CN(C)C(=O)Nc2cnc3c(c2)c(C)nn3C)s1,19.39
Cc1cc(NCc2ccc(C#N)cc2)n2nc(C)cc2n1,26.35
CNC(=O)CN1CCC(c2cc(OC)cc(OC)c2)C1 (stereo unspecified),-6.847
COc1c(CNCCNC(=O)Cc2ccc(F)cc2)c(C)nn1C,-53.79
O=C(NCCCNC(=O)c1cccc(O)c1)NCc1ccccc1F,-0.5678 & 16.15
CC(C)=CCS(=O)(=O)Cc1nc(C(C)C)no1,33.77
CS(=O)(=O)N1CCC2(CC1)COC(COc1cccnc1)C2.O=C(O)C(F)(F)F (stereo unspecified),16.89
O=c1cc2c(nn1CN1CCN(c3ccccc3)CC1)CCC2,-2.847
[H][C@@]12CCN(Cc3cnn(C)c3)C[C@@]1([H])O[C@@H](c1nc(C3CC3)cs1)C2,23.92
O=C(O)C(F)(F)F.O=C(O)C(F)(F)F.O=C(O)C(F)(F)F.[H][C@]12CCN(Cc3ccccn3)[C@@]1([H])CC[C@H](COCc1ccccn1)O2,-14.18
O=C(c1cccs1)N1CC(C(=O)N2CCCC2)C2(CCOCC2)C1 (stereo unspecified),-12.12 & -4.224
Cc1cc(C(=O)NCc2cnn(C)c2C)nc(N2CCCCCC2)n1,21.98
CCNC(=O)N1CCc2ccc(NC(=O)NCc3ccsc3)cc21,-0.8752
Cc1ccc(CNC2CCCN(Cc3noc(C4CC4)n3)C2)s1 (stereo unspecified),-77.37 & -3.607
O=c1c(Cc2ccccc2)c(O)ccn1Cc1ccco1,-0.4219 & -13.01
Cc1ccc(N2CCC(CCN3CCCC3=O)CC2)nn1,19.93
CNC(=O)C1(CCCc2cnccn2)CCN1Cc1ccc(C)cc1 (stereo unspecified),-13.68
Cc1nnc2n1CCN(CC(=O)N1CCc3ccccc3C1)C2,-38.76
CNc1nc(C2CCCN(C(=O)C(C)C)C2)nc2c1CN(C)CC2 (stereo unspecified),-43.01
CCN(C(=O)CN(CC(N)=O)C(C)C)C1=CCCC1,20.83
[H][C@]12CN(CC(C)C)C(=O)[C@@]1([H])CN(S(=O)(=O)c1cccs1)C2,-28.28
O=c1[nH]c(-c2ccccn2)nc2c1CCN(S(=O)(=O)N1CCCC1)C2,-30.64 & -4.899
CCC(CO)N(Cc1cccc(-n2cccn2)c1)Cc1cccs1 (stereo unspecified),26.29
CCc1ccc(C(C)NCc2nccn2Cc2ccccc2)o1 (stereo unspecified),10.51 & 14.56
CC(O)CN(Cc1cccc(C(=O)N(C)C)c1)c1ccccc1 (stereo unspecified),-8.398
O=C(c1ccc2nccnc2c1)N1C[C@@H](CN2CCCC2)[C@@H](CO)C1,-17.28
N#Cc1cccc(CNc2cc(CO)ccc2Cl)c1,17.52
Cc1c2ncn(CC(=O)NC(C)C)c(=O)c2nn1C,-27.43

From ChEMBL document CHEMBL3988442, “University of Dundee, Small-Polar-MMV Screening Library” (2021).